Test results reported in US10722582B2, “Targeted antimicrobial photodynamic therapy” (Purdue Research Foundation, priority 2018, dated 2020).
At least one structure is not confirmed: it was looked up by name or label, or the drawing left a doubt.

Tested on: S. aureus (PCI 1203)
Experiment: Competitive hemin uptake assay (fluorescence microscopy)
Type: cell-based, Staphylococcus aureus
Conditions: one equivalent of hemin, 15 minutes of co-incubation
Method: To elucidate the relevant structural features for the specific uptake of Ga-PpIX by S. aureus, we performed a competitive uptake assay using one equivalent of hemin against Ga-PpIX, PpIX, and eleven other fluorescent PpIX derivatives, with evaluation by fluorescence microscopy after 15 minutes of co-incubation (FIG. 5 and Table 4). […]
Bacteria were cultured and assayed in iron-deficient media unless otherwise noted. […] A 10-μL aliquot of concentrated bacteria was deposited onto a glass slide and dried in air for 20 min, then imaged by fluorescence microscopy as described above. For details on fluorescence image processing and quantitative analysis, see Supporting Information.
S. aureus (PCI 1203; ATCC 10537) was first cultured in standard TS broth, then in media containing 3 mM bipyridine. […] Bacteria were harvested and washed as described above, then evaluated by fluorescence microscopy for relative uptake efficiency.
Darkfield and fluorescent images were acquired in succession, with the former used to map regions of interest (ROIs) by tracing the outlines of bacteria (FIG. 8). Three images were acquired for each sample; in each case, the tracing map was overlaid onto the fluorescence image to calculate pixel intensities within each ROI, using the mean pixel intensity for quantitative analysis. […]

In the case of CC1=C(CCC(=O)O)c2cc3[nH]c(cc4nc(cc5[nH]c(cc1n2)c(C)c5C(C)O)C(C)=C4C(C)O)c(C)c3CCC(=O)O (stereo not shown) [HP (4), hematoporphyrin], the “effect of hemin competition on uptake” value is reported as “moderately affected by hemin”.
